The text below walks through data of article PMC4140642.

Protein sequences, listed by entry. Tags and fused reporters are not part of them. Residues count along the entry.
UniProt P91943, 273-341: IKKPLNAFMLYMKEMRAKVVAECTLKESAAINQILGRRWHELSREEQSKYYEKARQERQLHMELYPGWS

The target of data set [1] is GST-HMG-C-clamp (TCF/Pangolin) (UniProt P91943). Kind of data set: reverse EMSA (silver-stained native gel). To be noted: 20x DNA; EMSA: 4 nM biotinylated probe, 7-20 uM protein, salt and pH not given; recombinant protein; protein details: GST. (In EMSA bound probe runs differently from free probe, usually more slowly.)
The target of data set [2] is GST-HMG (TCF/Pangolin HMG domain) (UniProt P91943). As to the kind of experiment: DNase I footprinting. To be noted: 20 uM protein; footprinting: 20 uM protein, 12 nM probe; recombinant protein; protein details: GST; label: FAM or HEX; probe letters rebuilt from the primers and the genome.

Construct, isoform or probe ends are uncertain for at least one entry. For some of these results: No signal at the amounts used counts as a negative.

As for “AACCGGATGAAAAGGGAATTCGGGGCCACA (double strand) [WH oligo (Tig1 WGAWAW + r-Helper)]”, the binding result in data set [1] is reported as “binds”.

Consider “AAGGAAGATCAAAGGGGGTAGCCGCCAGTA (double strand) [TH oligo (classic HMG + Helper)]”, for which the binding result in data set [1] was “binds”.

Take “AAGGCCTCGACCCTTGGGTATAATAACGTA (double strand) [SS oligo (HMG and Helper sites mutated from TH)]”: the binding result in data set [1] was “no binding”.

Consider “AGCGATACGTTCGTTAGTTCGGAATAGAAAGAACTTGGGAAAATATTTAAAAATAAATAGCGACAGCCTGCAGGGGCCCAAGAAATGTGTTCCAGAAATAAGCAATACTATATTTTGGGAAAATGCATGTGTGACCCATTTGGGGGAGACGTCTTCTGTGGGGCCCTGAAATCGAAAGTTACATGTCGTCAAGTCCATGGGACTTATCAACCTAAACCGGATGAAAAGGGAATTCGGGGCCACATACATTAGTCTAATTGTTGTCAAAAAAAAAAATATACAAAAAATACAAGTGGGCAGTGAGCTTC (double strand) [Tig intron footprint probe]”, for which the binding result in data set [2] was “binds”.
